Measured values taken from the supplement of paper PMC10849652.
Some of the results follow.

Amino acid sequences for entries named in this document (tags omitted). A change or cut given only in a name is not applied to a line headed by its entry.
UniProt P14625, whole entry, looked up: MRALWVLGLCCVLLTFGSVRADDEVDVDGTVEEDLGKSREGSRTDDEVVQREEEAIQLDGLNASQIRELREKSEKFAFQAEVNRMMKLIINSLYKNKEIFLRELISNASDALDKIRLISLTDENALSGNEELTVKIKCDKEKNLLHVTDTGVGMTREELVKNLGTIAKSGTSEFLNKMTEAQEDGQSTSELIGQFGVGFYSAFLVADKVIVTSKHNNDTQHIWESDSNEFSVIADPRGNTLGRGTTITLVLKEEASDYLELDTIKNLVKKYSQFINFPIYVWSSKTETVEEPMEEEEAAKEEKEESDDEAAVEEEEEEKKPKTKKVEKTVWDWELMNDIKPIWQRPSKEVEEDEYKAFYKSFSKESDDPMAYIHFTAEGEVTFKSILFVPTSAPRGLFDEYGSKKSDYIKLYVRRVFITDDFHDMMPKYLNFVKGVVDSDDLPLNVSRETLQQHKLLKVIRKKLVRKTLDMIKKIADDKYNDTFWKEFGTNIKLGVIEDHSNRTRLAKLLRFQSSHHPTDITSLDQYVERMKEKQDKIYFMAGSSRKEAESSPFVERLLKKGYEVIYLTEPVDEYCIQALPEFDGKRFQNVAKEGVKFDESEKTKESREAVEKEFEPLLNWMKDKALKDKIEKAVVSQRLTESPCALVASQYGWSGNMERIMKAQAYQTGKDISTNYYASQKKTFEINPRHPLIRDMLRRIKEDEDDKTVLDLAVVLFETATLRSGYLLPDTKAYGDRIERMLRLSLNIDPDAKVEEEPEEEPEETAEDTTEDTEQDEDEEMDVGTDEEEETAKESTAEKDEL
UniProt P35914: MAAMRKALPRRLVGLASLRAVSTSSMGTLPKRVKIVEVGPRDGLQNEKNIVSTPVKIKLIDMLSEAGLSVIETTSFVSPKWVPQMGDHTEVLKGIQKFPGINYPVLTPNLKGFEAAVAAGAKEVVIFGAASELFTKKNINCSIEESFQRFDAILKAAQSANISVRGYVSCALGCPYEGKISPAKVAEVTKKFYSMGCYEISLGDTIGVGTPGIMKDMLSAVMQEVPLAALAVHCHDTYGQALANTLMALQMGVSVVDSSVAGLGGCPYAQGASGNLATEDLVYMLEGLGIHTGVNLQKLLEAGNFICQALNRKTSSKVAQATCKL
UniProt Q9NQE9: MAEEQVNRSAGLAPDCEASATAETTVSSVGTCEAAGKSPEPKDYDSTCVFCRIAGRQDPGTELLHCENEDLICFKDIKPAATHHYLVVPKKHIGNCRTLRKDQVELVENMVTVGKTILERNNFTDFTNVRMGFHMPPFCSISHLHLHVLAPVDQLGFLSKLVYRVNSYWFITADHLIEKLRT
UniProt P41252: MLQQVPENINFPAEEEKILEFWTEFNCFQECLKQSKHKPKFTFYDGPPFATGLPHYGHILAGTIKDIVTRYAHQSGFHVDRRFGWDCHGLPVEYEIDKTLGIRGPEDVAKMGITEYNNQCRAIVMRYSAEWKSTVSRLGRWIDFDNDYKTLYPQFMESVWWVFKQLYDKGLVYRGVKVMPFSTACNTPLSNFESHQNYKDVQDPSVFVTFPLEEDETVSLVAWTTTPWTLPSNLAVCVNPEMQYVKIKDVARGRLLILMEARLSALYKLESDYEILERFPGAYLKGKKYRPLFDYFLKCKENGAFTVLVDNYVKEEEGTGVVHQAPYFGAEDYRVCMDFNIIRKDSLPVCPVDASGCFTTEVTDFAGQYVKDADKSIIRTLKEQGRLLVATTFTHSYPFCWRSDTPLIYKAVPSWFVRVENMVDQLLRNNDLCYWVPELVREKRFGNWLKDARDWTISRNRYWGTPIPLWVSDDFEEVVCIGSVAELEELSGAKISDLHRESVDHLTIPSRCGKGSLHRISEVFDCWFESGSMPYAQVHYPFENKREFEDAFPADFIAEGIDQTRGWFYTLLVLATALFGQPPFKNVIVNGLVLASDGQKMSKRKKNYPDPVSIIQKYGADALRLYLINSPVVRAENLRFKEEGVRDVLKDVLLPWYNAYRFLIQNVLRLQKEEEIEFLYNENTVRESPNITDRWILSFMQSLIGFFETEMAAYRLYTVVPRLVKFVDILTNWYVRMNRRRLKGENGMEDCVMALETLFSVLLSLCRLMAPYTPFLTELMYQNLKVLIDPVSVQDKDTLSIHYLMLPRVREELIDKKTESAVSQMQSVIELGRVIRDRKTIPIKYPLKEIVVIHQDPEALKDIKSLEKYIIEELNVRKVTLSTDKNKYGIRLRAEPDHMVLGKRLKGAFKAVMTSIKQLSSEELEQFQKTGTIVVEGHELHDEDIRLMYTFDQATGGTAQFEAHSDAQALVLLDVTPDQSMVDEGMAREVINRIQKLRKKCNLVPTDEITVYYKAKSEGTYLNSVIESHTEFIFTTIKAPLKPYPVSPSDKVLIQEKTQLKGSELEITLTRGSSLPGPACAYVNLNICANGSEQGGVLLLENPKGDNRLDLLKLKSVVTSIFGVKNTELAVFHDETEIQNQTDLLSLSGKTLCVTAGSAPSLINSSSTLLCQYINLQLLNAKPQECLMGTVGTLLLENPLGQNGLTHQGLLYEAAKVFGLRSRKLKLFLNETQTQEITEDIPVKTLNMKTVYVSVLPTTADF
UniProt P51659: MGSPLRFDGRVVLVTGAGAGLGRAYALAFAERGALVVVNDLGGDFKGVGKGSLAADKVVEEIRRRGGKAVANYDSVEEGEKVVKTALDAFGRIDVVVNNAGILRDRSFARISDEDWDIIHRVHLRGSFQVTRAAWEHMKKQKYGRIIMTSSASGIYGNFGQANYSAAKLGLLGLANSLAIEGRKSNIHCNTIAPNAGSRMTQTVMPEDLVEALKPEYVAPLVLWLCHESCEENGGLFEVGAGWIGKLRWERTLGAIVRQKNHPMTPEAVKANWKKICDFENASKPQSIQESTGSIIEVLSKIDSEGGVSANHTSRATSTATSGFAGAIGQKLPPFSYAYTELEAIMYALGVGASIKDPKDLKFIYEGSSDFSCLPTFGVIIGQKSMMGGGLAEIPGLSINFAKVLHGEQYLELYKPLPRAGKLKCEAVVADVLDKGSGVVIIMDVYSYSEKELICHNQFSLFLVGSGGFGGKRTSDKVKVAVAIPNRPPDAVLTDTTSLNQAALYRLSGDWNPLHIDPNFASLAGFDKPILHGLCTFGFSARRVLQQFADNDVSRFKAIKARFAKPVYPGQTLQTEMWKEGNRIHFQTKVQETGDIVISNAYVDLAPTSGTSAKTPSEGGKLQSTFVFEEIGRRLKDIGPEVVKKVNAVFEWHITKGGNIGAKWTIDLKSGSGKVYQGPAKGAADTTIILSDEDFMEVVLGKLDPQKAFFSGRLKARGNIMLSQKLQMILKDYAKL
UniProt P34932: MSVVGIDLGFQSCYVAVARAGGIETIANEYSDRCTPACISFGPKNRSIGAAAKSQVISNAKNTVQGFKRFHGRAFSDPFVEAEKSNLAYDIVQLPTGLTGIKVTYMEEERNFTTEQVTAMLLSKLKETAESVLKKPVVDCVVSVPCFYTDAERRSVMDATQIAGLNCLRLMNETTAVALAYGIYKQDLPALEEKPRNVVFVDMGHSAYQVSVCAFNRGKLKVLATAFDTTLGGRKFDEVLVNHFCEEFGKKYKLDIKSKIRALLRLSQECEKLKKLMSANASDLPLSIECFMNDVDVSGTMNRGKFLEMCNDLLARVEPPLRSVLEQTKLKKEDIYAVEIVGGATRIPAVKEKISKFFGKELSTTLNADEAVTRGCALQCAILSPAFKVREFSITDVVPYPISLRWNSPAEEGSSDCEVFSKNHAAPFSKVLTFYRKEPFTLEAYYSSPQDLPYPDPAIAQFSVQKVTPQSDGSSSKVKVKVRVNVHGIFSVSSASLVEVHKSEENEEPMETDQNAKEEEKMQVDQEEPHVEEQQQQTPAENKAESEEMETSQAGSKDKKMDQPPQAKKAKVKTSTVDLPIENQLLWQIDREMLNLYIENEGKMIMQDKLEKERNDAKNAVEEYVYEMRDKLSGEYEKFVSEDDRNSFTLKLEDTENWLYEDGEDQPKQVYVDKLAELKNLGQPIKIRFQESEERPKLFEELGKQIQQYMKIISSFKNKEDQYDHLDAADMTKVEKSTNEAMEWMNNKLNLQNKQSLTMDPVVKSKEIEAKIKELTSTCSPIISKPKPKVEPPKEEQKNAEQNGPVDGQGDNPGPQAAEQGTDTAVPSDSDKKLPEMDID
UniProt P22626: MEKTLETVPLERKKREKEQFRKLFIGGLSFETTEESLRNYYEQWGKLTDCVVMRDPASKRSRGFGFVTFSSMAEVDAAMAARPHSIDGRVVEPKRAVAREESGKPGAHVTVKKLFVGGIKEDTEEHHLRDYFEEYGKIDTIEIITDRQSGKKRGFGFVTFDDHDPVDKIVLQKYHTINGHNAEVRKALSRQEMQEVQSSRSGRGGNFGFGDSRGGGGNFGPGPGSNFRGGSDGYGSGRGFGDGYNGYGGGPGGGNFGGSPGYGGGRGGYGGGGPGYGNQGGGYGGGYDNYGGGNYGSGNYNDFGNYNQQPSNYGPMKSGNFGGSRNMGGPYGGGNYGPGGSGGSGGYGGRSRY
UniProt P10809, whole entry, looked up: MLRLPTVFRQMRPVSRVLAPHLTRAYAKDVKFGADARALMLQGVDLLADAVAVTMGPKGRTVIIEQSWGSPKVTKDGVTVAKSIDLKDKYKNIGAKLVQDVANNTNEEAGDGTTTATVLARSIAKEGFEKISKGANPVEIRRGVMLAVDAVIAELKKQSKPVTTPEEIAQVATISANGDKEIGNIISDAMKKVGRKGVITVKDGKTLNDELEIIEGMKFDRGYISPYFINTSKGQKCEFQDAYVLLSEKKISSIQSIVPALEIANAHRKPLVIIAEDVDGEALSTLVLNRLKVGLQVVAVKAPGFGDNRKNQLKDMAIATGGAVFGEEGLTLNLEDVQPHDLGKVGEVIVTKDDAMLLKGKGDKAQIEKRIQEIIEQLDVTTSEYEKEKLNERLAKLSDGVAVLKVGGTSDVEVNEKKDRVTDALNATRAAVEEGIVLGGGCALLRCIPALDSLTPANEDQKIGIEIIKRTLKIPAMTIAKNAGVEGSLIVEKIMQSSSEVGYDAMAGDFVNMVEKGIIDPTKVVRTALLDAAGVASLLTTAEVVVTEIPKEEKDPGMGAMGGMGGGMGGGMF
UniProt Q6YN16: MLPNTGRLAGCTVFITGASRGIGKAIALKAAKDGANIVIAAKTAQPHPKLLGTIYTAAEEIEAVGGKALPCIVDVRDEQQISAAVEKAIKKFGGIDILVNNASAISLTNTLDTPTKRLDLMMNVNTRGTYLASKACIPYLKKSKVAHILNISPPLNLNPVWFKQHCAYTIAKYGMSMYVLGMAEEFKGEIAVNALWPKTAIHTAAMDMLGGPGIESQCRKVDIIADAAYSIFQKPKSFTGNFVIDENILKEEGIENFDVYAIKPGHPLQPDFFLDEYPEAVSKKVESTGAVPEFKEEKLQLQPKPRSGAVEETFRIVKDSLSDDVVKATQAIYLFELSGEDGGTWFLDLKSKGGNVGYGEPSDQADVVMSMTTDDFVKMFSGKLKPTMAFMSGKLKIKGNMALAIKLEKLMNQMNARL
UniProt O60921: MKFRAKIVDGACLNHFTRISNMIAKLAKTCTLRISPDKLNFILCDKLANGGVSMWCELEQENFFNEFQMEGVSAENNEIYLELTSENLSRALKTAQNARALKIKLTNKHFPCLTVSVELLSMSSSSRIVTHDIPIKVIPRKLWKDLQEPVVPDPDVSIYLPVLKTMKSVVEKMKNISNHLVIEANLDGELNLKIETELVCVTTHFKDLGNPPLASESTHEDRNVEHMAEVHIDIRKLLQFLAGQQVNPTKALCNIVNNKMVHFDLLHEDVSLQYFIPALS
UniProt Q8TCT9: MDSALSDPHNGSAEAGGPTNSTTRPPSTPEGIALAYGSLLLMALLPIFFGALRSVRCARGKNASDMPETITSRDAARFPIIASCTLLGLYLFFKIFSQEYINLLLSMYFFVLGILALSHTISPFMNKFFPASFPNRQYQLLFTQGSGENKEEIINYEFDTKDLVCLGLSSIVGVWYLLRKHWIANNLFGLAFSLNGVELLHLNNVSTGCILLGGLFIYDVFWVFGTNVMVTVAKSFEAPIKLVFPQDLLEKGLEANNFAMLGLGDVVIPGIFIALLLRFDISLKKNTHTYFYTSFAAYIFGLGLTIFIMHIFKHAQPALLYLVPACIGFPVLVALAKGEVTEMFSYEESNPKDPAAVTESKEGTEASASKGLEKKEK

Tests used:
Assay in all cases: log2 fold change, soluble protein after heating vs DMSO (PISA); higher = thermal stabilisation; K562 cells, 10 uM, 30 min; active = over 0.2 and 3.5 SD of the protein, either way, in both replicates (recomputed)
[1] = compound: CS(=O)(=O)c1ccc(-c2cnc(N)c(C(=O)Nc3ccccc3)n2)cc1
In short: (§1)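 K562 cells at 2×10^6 cells/mL were treated with 10 μM compound for 30 min. Aliquots were heated for 3 min across 48°C-58°C, pooled, and extracted in PBS with 0.5% NP-40 at 4°C; soluble protein was the supernatant after 21,000xg for 90 min. Soluble protein was quantified by TMTpro 16plex LC-MS/MS with channel sums equalised, and reported as log2 fold change in thermal stability against DMSO controls, with values from duplicates.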

crizotinib = compound: C[C@@H](Oc1cc(-c2cnn(C3CCNCC3)c2)cnc1N)c1c(Cl)ccc(F)c1Cl [crizotinib]
In short: as §1

[2] = compound: C[C@@H]1COCCN1C2=NC(=NC(=C2)C3(CC3)S(=O)(=O)C)C4=C5C=CNC5=CC=C4
In short: as §1

[3] = compound: C[C@H](C1=CC=C(C=C1)C(=O)NC2=C3C=CNC3=NC=C2)N
In short: as §1

duvelisib = compound: C[C@H](Nc1ncnc2nc[nH]c12)c1cc2cccc(Cl)c2c(=O)n1-c1ccccc1 [duvelisib]
In short: as §1

gandotinib = compound: Cc1cc(Nc2cc(CN3CCOCC3)c3nc(C)c(Cc4ccc(Cl)cc4F)n3n2)n[nH]1 [gandotinib]
In short: as §1

tozasertib = compound: Cc1cc(Nc2cc(N3CCN(C)CC3)nc(Sc3ccc(NC(=O)C4CC4)cc3)n2)n[nH]1 [tozasertib]
In short: as §1

[4] = compound: Cc1cc(SCc2sc(-c3ccc(C(F)(F)F)cc3)nc2C)ccc1OCC(=O)O
In short: as §1

doramapimod = compound: Cc1ccc(-n2nc(C(C)(C)C)cc2NC(=O)Nc2ccc(OCCN3CCOCC3)c3ccccc23)cc1 [doramapimod]
In short: as §1

ispinesib = compound: Cc1ccc(C(=O)N(CCCN)[C@@H](c2nc3cc(Cl)ccc3c(=O)n2Cc2ccccc2)C(C)C)cc1 [ispinesib]
In short: as §1

bafetinib = compound: Cc1ccc(NC(=O)c2ccc(CN3CC[C@H](N(C)C)C3)c(C(F)(F)F)c2)cc1Nc1nccc(-c2cncnc2)n1 [bafetinib]
In short: as §1

[5] = compound: Cc1cccc(CC(=O)N2CCc3c2ccc(-c2cn(C)c4ncnc(N)c24)c3F)n1
In short: as §1

nilotinib = compound: Cc1cn(-c2cc(NC(=O)c3ccc(C)c(Nc4nccc(-c5cccnc5)n4)c3)cc(C(F)(F)F)c2)cn1 [nilotinib]
In short: as §1

[6] = compound: Cc1nc(Nc2n[nH]c3c2CN(C(=O)N[C@H](CN(C)C)c2ccccc2)C3(C)C)c2sccc2n1
In short: as §1

dasatinib = compound: Cc1nc(Nc2ncc(C(=O)Nc3c(C)cccc3Cl)s2)cc(N2CCN(CCO)CC2)n1 [dasatinib]
In short: as §1

[7] = compound: Cc1ncc(-c2ccnc(Nc3ccc(S(C)(=O)=O)cc3)n2)n1C(C)C
In short: as §1

[8] = compound: Cn1cc(-c2ccc3c(c2)CCN3C(=O)Cc2cccc(C(F)(F)F)c2)c2c(N)ncnc21
In short: as §1

[9] = compound: Cn1cc(-c2ccc3nnc(C(F)(F)c4ccc5ncccc5c4)n3n2)cn1
In short: as §1

tipifarnib = compound: Cn1cncc1[C@@](N)(c1ccc(Cl)cc1)c1ccc2c(c1)c(-c1cccc(Cl)c1)cc(=O)n2C [tipifarnib]
In short: as §1

mubritinib = compound: FC(F)(F)c1ccc(/C=C/c2nc(COc3ccc(CCCCn4ccnn4)cc3)co2)cc1 [mubritinib]
In short: as §1

Measured: log2 fold change

HSP90B1 (UniProt P14625)
inactive: [1] 0.009 | crizotinib 0.054 | [2] 0.009 | [3] -0.015 | duvelisib 0.006 | gandotinib -0.021 | tozasertib -0.008 | [4] -0.021 | doramapimod 0 | ispinesib -0.004 | bafetinib -0.041 | [5] -0.02 | nilotinib -0.071 | [6] -0.006 | dasatinib 0.009 | [7] -0.018 | [8] -0.021 | [9] 0.018 | tipifarnib 0.031 | mubritinib -0.049

HMGCL (UniProt P35914)
inactive: [1] 0.038 | crizotinib 0.033 | [2] 0.013 | [3] -0.066 | duvelisib -0.005 | gandotinib -0.084 | tozasertib -0.032 | [4] 0.033 | doramapimod 0.005 | ispinesib 0.022 | bafetinib -0.045 | [5] 0.042 | nilotinib -0.004 | [6] 0.012 | dasatinib -0.038 | [7] -0.02 | [8] 0.067 | [9] -0.002 | tipifarnib 0.046 | mubritinib 0.034

HINT3 (UniProt Q9NQE9)
inactive: [1] -0.009 | crizotinib -0.026 | [2] -0.048 | [3] -0.162 | duvelisib 0.043 | gandotinib 0.099 | tozasertib -0.064 | [4] -0.017 | doramapimod -0.001 | ispinesib 0.004 | bafetinib -0.157 | [5] 0.009 | nilotinib 0.02 | [6] -0.059 | dasatinib 0.051 | [7] -0.035 | [8] 0.025 | [9] -0.071 | tipifarnib 0.011 | mubritinib 0.097

2 successive records out of the list so far:
HSP90B1 (UniProt P14625)
inactive: [1] 0.009 | crizotinib 0.054 | [2] 0.009 | [3] -0.015 | duvelisib 0.006 | gandotinib -0.021 | tozasertib -0.008 | [4] -0.021 | doramapimod 0 | ispinesib -0.004 | bafetinib -0.041 | [5] -0.02 | nilotinib -0.071 | [6] -0.006 | dasatinib 0.009 | [7] -0.018 | [8] -0.021 | [9] 0.018 | tipifarnib 0.031 | mubritinib -0.049

HMGCL (UniProt P35914)
inactive: [1] 0.038 | crizotinib 0.033 | [2] 0.013 | [3] -0.066 | duvelisib -0.005 | gandotinib -0.084 | tozasertib -0.032 | [4] 0.033 | doramapimod 0.005 | ispinesib 0.022 | bafetinib -0.045 | [5] 0.042 | nilotinib -0.004 | [6] 0.012 | dasatinib -0.038 | [7] -0.02 | [8] 0.067 | [9] -0.002 | tipifarnib 0.046 | mubritinib 0.034

(listing goes on)

HMGN4 (UniProt O00479)
inactive: [1] -0.457 | crizotinib 0.028 | [2] -0.357 | [3] -0.433 | duvelisib -0.129 | gandotinib 0.028 | tozasertib 0 | [4] -0.182 | doramapimod 0.164 | ispinesib 0.253 | bafetinib 0.061 | [5] 0.135 | nilotinib 0.249 | [6] -0.131 | dasatinib 0.007 | [7] 0.095 | [8] 0.104 | [9] -0.111 | tipifarnib -0.055 | mubritinib -0.07

IARS (UniProt P41252)
inactive: [1] 0.096 | crizotinib -0.119 | [2] -0.309 | [3] 0.464 | duvelisib -0.097 | gandotinib 0.109 | tozasertib 0.019 | [4] 0.121 | doramapimod 0.321 | ispinesib -0.342 | bafetinib 0.15 | [5] 0 | nilotinib -0.132 | [6] -0.031 | dasatinib 0 | [7] 0.053 | [8] -0.226 | [9] -0.196 | tipifarnib 0.011 | mubritinib -0.113

HSD17B4 (UniProt P51659)
inactive: [1] 0.033 | crizotinib 0.084 | [2] 0.031 | [3] -0.048 | duvelisib 0.007 | gandotinib -0.015 | tozasertib 0.001 | [4] 0.016 | doramapimod 0.002 | ispinesib 0.092 | bafetinib -0.017 | [5] 0.015 | nilotinib 0.007 | [6] 0.004 | dasatinib 0.045 | [7] -0.012 | [8] 0.033 | [9] 0.009 | tipifarnib 0.009 | mubritinib 0.176

HSPA4 (UniProt P34932)
inactive: [1] 0.012 | crizotinib 0.025 | [2] 0.055 | [3] -0.062 | duvelisib 0.013 | gandotinib -0.056 | tozasertib -0.004 | [4] -0.002 | doramapimod -0.031 | ispinesib 0.071 | bafetinib -0.047 | [5] -0.005 | nilotinib 0.005 | [6] -0.017 | dasatinib -0.055 | [7] 0.001 | [8] 0.026 | [9] 0.015 | tipifarnib -0.027 | mubritinib 0.015

HNRNPA2B1 (UniProt P22626)
inactive: [1] -0.146 | crizotinib 0.035 | [2] -0.444 | [3] 0.224 | duvelisib -0.122 | gandotinib 0.181 | tozasertib 0.04 | [4] 0.028 | doramapimod 0.041 | ispinesib -0.113 | bafetinib 0.06 | [5] -0.009 | nilotinib -0.027 | [6] 0.068 | dasatinib 0.363 | [7] 0.185 | [8] -0.383 | [9] -0.243 | tipifarnib 0.217 | mubritinib -0.252

HSPD1 (UniProt P10809)
inactive: [1] 0.004 | crizotinib 0.038 | [2] 0.032 | [3] -0.008 | duvelisib -0.013 | gandotinib -0.025 | tozasertib -0.023 | [4] -0.043 | doramapimod -0.006 | ispinesib 0.007 | bafetinib -0.069 | [5] -0.032 | nilotinib -0.002 | [6] -0.005 | dasatinib 0.034 | [7] -0.018 | [8] 0.018 | [9] 0.024 | tipifarnib 0.059 | mubritinib 0.016

HSDL2 (UniProt Q6YN16)
inactive: [1] 0.002 | crizotinib -0.049 | [2] 0.094 | [3] -0.079 | duvelisib 0.013 | gandotinib 0.038 | tozasertib -0.049 | [4] 0.064 | doramapimod -0.074 | ispinesib 0.043 | bafetinib 0.048 | [5] 0.029 | nilotinib -0.007 | [6] -0.043 | dasatinib -0.15 | [7] -0.013 | [8] 0.057 | [9] 0.011 | tipifarnib -0.086 | mubritinib -0.043

HMMR isoform 3 (UniProt O75330)
inactive: [1] -0.004 | crizotinib -0.082 | [2] -0.03 | [3] 0.059 | duvelisib -0.004 | gandotinib -0.085 | tozasertib 0 | [4] 0.088 | doramapimod 0.044 | ispinesib -0.081 | bafetinib 0.008 | [5] 0.053 | nilotinib -0.069 | [6] -0.065 | dasatinib -0.083 | [7] 0.007 | [8] 0 | [9] -0.019 | tipifarnib -0.041 | mubritinib 0.04

HUS1 (UniProt O60921)
inactive: [1] -0.019 | crizotinib 0.017 | [2] 0.047 | [3] -0.047 | duvelisib 0.012 | gandotinib -0.073 | tozasertib -0.019 | [4] -0.002 | doramapimod -0.003 | ispinesib 0.013 | bafetinib -0.001 | [5] -0.018 | nilotinib 0.007 | [6] 0.039 | dasatinib 0.03 | [7] -0.036 | [8] 0.069 | [9] -0.02 | tipifarnib -0.022 | mubritinib 0.03

HM13 isoform 2 (UniProt Q8TCT9)
inactive: [1] -0.014 | crizotinib 0.038 | [2] 0.003 | [3] -0.041 | duvelisib -0.004 | gandotinib -0.031 | tozasertib -0.004 | [4] -0.037 | doramapimod 0.002 | ispinesib -0.021 | bafetinib -0.058 | [5] -0.007 | nilotinib -0.045 | [6] 0.02 | dasatinib 0.033 | [7] -0.048 | [8] -0.001 | [9] 0.012 | tipifarnib 0.052 | mubritinib 0.033

IARS2 (UniProt Q9NSE4)
inactive: [1] 0.003 | crizotinib 0.029 | [2] 0.007 | [3] -0.073 | duvelisib 0.013 | gandotinib 0.025 | tozasertib -0.005 | [4] -0.03 | doramapimod -0.033 | ispinesib 0.03 | bafetinib -0.02 | [5] 0.019 | nilotinib 0.025 | [6] -0.008 | dasatinib 0.016 | [7] 0.004 | [8] 0.008 | [9] 0.014 | tipifarnib 0.018 | mubritinib 0.02

HMGCS1 (UniProt Q01581)
inactive: [1] 0.032 | crizotinib 0.01 | [2] 0.006 | [3] -0.066 | duvelisib 0.039 | gandotinib -0.003 | tozasertib -0.041 | [4] -0.045 | doramapimod -0.015 | ispinesib 0.006 | bafetinib -0.067 | [5] -0.042 | nilotinib -0.018 | [6] -0.06 | dasatinib 0.032 | [7] -0.024 | [8] 0.047 | [9] -0.006 | tipifarnib 0.019 | mubritinib -0.1
